Test results taken from paper PMC7819943, “Rice protein-binding microarrays: a tool to detect cis-acting elements near promoter regions in rice”.
This is one part of the list.

Protein sequences, listed by entry. Tags and fused reporters are not part of them.
UniProt Q0JBA9, entry or part of it: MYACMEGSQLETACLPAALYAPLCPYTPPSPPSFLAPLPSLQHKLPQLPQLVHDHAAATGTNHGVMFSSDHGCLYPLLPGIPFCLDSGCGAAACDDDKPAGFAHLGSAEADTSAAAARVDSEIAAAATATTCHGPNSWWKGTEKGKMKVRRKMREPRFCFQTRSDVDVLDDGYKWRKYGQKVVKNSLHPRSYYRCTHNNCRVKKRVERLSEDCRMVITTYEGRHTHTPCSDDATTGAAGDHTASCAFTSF

Each sequence was assayed against OsWRKY34 (Oryza sativa, UniProt Q0JBA9 1-250) (assay: protein-binding microarray (RPBM); PBS, 2% BSA, 51.3 ng/ul salmon testes DNA, 50 uM zinc acetate, 200 nM TF, 25 C, 1 h; high values mean tight binding). Settings: protein: recombinant; tags: N-terminal polyhistidine and DsRed monomer fusion (pET32a); label: CyDye5-dUTP incorporated in the synthesized complementary strand; 3' TTTTT single-stranded linker to array surface; dsDNA, one strand shown.
Procedure, shortened: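 Binding signal is defined as the fluorescence intensity of each feature in arbitrary units, read on an Axon 4000B scanner. Transcription factors with N-terminal polyhistidine and DsRed fusions came from E. coli BL21-CodonPlus and were purified on Ni–NTA. They were incubated at 200 nM for 1 h at 25 °C on a custom Agilent array that had been made double-stranded with Cy5-dUTP, with 50 µM zinc acetate present, and the array was washed.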

Sequence | binding signal
GTCATAGTGTACCCTTCTGCAAGCTCCTCGTGTCCATCTGCGGAGTCACCTAGTGCAG | 9580 fluorescence intensity (a.u.)
GGTAGATTTCTCTTTTTTTTTTCTCTCGTACGTAAGTTTCCGGAGTCACCTAGTGCAG | 8650 fluorescence intensity (a.u.)
GTGAGTGTCCGCACTAGGGTGGGGAAGCTTCGTGGCGGGACGGAGTCACCTAGTGCAG | 9270 fluorescence intensity (a.u.)
GTATTAGGCCATGCCTCTGGTATTCCTTTGCATTTCGATCCGGAGTCACCTAGTGCAG | 8580 fluorescence intensity (a.u.)
TCTCGCTTGCAATGCTTATCCTATCAATCAATTCCTTCTTCGGAGTCACCTAGTGCAG | 9080 fluorescence intensity (a.u.)
TCGCCCTTCGTCTCCGCCTCCGTCGCCTCCATCTCGCCGCCGGAGTCACCTAGTGCAG | 12200 fluorescence intensity (a.u.)
GGTCGTTCATTTCTGCTCGTTGGATTAAAACAAAAATGTCCGGAGTCACCTAGTGCAG | 8360 fluorescence intensity (a.u.)
CCGGTGAGCAATTCCAAACCTACTAGCTGATTTTGTCATTCGGAGTCACCTAGTGCAG | 8160 fluorescence intensity (a.u.)
CGCGAGGACGCGGAGCTCGCTGAGGTTGGGGTTGTGGCGCCGGAGTCACCTAGTGCAG | 8470 fluorescence intensity (a.u.)
ATATAAAGCTCGCCCCGTCTCCGCCTCGGCTTACCATTCACGGAGTCACCTAGTGCAG | 11800 fluorescence intensity (a.u.)
TTCTAGCATTGCCCGCATTCATATATATGTTAATGAATCTCGGAGTCACCTAGTGCAG | 8920 fluorescence intensity (a.u.)
TTTATGCGCCAGGTTGTTATCTCGCACACTTGTTCTTTAGCGGAGTCACCTAGTGCAG | 9990 fluorescence intensity (a.u.)
TGGGAGACTCGGACTCGCGGCGTTTGTTTTCTTTCAGCTTCGGAGTCACCTAGTGCAG | 9530 fluorescence intensity (a.u.)
GCTCGCCGGCGACCTCCTCCGACCACCTCGGCCACCACTCCGGAGTCACCTAGTGCAG | 10900 fluorescence intensity (a.u.)
GATCTCGCTTCTGCCCCGTGGCCACATGCGAACATAACCACGGAGTCACCTAGTGCAG | 8520 fluorescence intensity (a.u.)
AGTAATGATATTTTCTTGTCTTGGTCTTGGCGCCATTTACCGGAGTCACCTAGTGCAG | 8050 fluorescence intensity (a.u.)
TCCTCCATTCCATTCCATTTCTCCTCACGCTACCGCCACACGGAGTCACCTAGTGCAG | 11800 fluorescence intensity (a.u.)
TCATGCTGGCCTGTTCGAAACACTTCTTGTTATTGCTTGTCGGAGTCACCTAGTGCAG | 9130 fluorescence intensity (a.u.)
CACTAAGTACTCAACTCTTCTTCAACGTGTCATTGCTCACCGGAGTCACCTAGTGCAG | 8060 fluorescence intensity (a.u.)
CGTCTCACTCCTCTCTCTCTATCTCCTGTCCTGCCCTGCCCGGAGTCACCTAGTGCAG | 8030 fluorescence intensity (a.u.)
TGGGATTTTGCTGCCTGGTTTGGATAACGCTAAATTAAATCGGAGTCACCTAGTGCAG | 9820 fluorescence intensity (a.u.)

2 records picked at random from those above:
Sequence | binding signal
AGTAATGATATTTTCTTGTCTTGGTCTTGGCGCCATTTACCGGAGTCACCTAGTGCAG | 8050 fluorescence intensity (a.u.)
GTGAGTGTCCGCACTAGGGTGGGGAAGCTTCGTGGCGGGACGGAGTCACCTAGTGCAG | 9270 fluorescence intensity (a.u.)

(listing goes on)

Sequence | binding signal
GTATCATTACTTGGTTTTTTTTTGACCAATTTGGCAGTCACGGAGTCACCTAGTGCAG | 8090 fluorescence intensity (a.u.)
CGACGACGAGGTTTAGGTAGGGGTTCTTGGCTTGTCGGCGCGGAGTCACCTAGTGCAG | 8070 fluorescence intensity (a.u.)
CTCTGCCCCACGTTGGCTCGCGTCCGCGGCCCATCTCCACCGGAGTCACCTAGTGCAG | 12400 fluorescence intensity (a.u.)
ATGCATTTGTTTGTGCCAAATGCCTCGCCTTATCCTGTCACGGAGTCACCTAGTGCAG | 8320 fluorescence intensity (a.u.)
GGCCTGCTTCCGCTTCTCCGAATGATCTTGGTTTTGGTTTCGGAGTCACCTAGTGCAG | 9420 fluorescence intensity (a.u.)
CCGTTGACTCACCAATCGCCACACACATTGTCGACAAGTACGGAGTCACCTAGTGCAG | 10600 fluorescence intensity (a.u.)
AATGGGACTTGGGCGATTGTGCATTAGATGTGTTTACTACCGGAGTCACCTAGTGCAG | 8980 fluorescence intensity (a.u.)
TTTATGCTTTTCGTATCGTTTGCCCTTATTGTGCATTCGACGGAGTCACCTAGTGCAG | 12700 fluorescence intensity (a.u.)
GGATTTTATATGTATTTATCAAAGTTTGGTATCAATCTAACGGAGTCACCTAGTGCAG | 8920 fluorescence intensity (a.u.)
CCGGGGCCGGCAGCGGCGGGCGGGCGGGCTCGAGCGGTGGCGGAGTCACCTAGTGCAG | 9020 fluorescence intensity (a.u.)
CCACTTGTACAAGGCGCTGGTCATTTGCATGTAGTAAAACCGGAGTCACCTAGTGCAG | 9000 fluorescence intensity (a.u.)
TTTCGCAAGCCCATTTTCTGATTCATGTTCTGATTCTATGCGGAGTCACCTAGTGCAG | 8110 fluorescence intensity (a.u.)
TTTGGTTGGATTGGATTGGATTGGATTGGCTGCTTCCCTGCGGAGTCACCTAGTGCAG | 11900 fluorescence intensity (a.u.)
CATATATATCTCCAGTTTTTATATAGTGTAGCCACTTGTTCGGAGTCACCTAGTGCAG | 9500 fluorescence intensity (a.u.)
ATTTCCAGCCTCCGCCGACACAACGCTACCGCAGACCCATCGGAGTCACCTAGTGCAG | 9330 fluorescence intensity (a.u.)
GTCCAAACTTCAGCCACCATCGTTACCACATACGTGCATTCGGAGTCACCTAGTGCAG | 10700 fluorescence intensity (a.u.)
CTTACCTGCTGCTGCTTGCCTTACGCCTACCACATCGCTCCGGAGTCACCTAGTGCAG | 10600 fluorescence intensity (a.u.)
CGTATGCAGCAGTTTCATGGGCCTGGTTTCTGGCGTTACTCGGAGTCACCTAGTGCAG | 8350 fluorescence intensity (a.u.)
CCGGATCACCAAGGACACCTCCACCTCGCTCTACACCATGCGGAGTCACCTAGTGCAG | 8210 fluorescence intensity (a.u.)
TAGATCTCTTGCTTTGGGTGTTGTTTGCTCTAGGTGTTCTCGGAGTCACCTAGTGCAG | 8250 fluorescence intensity (a.u.)
CCCTATAAACATCCGGATATCACACACATTCACACTCACACGGAGTCACCTAGTGCAG | 10100 fluorescence intensity (a.u.)
